Assay results as given in article PMC6650080, “A novel Ca2+-binding protein that can rapidly transduce auxin responses during root growth” (PLoS Biology, 2019).
These are yes or no findings as the source states them, for the method shown. Sequences can lack the tags named with a protein.

Molecular target: nonfused GST
Test: pull-down; GST-ICR1 (1.2 μg) or GST (0.4 μg) on Glutathione sepharose, His6-CMI1 0.5 μg; 20 mM Tris-HCl pH 7.5, 5 mM CaCl2, 0.1 mg/mL BSA, 200 mM NaCl, 1% Triton X-100, RT; wash with 1 M NaCl; blot with anti-poly-His; both purified

B1: His6-CMI1 (natural protein, Arabidopsis, UniProt O81831 1-130, looked up)
chain: MASPKSPTRPTQQNPQPNFHDFLPTMAGNLGGEGLIGELCNGFELLMDREKGVITFESLRRNAAAVLGLGDLTDEDVRCMIKEGDFDCDGALNQMEFCVLMFRLSPDLMEASRCLVTEVIEEEFGFTRRH
notes: CMI1, Arabidopsis, At4g27280; also called His-CMI1; source: E. coli Rosetta (DE3), purified (Ni-NTA)
binding: no binding
